Structures were worked out from names or drawings and are uncertain.
target: hMrgpMRGPRX2 (Homo sapiens, UniProt Q96LB1); assay: FLIPR intracellular calcium mobilization, antagonist activity in recombinant hMrgpMRGPRX2 expressing cells
Text: Potent and selective hMrgpMRGPRX2 compounds have been generated from compounds identified during a high throughput screening (HTS) campaign and followed up with cycles of structure activity based medicinal chemistry efforts. These compounds were characterized in recombinant hMrgpMRGPRX2 expressing cells for their antagonist activity and the potency was confirmed in the human mast cell line LAD-2, where the target is endogenously expressed. The assays used to determine potencies are functional read-out looking at intracellular calcium mobilization using the FLIPR™ technology. In these FLIPR assays, we test the identified compounds using recombinant cellular systems expressing mouse MrgprB2, mouse MrgprA1, gerbil MrgpMRGPRX2 orthologue, Chinese hamster MrgpMRGPRX2 orthologue and cynomolgus monkey MrgpMRGPRX2 orthologue, respectively for orthologue activity.

Chains of the proteins cited; added tags and fusions are not shown.
UniProt Q96LB1, whole entry: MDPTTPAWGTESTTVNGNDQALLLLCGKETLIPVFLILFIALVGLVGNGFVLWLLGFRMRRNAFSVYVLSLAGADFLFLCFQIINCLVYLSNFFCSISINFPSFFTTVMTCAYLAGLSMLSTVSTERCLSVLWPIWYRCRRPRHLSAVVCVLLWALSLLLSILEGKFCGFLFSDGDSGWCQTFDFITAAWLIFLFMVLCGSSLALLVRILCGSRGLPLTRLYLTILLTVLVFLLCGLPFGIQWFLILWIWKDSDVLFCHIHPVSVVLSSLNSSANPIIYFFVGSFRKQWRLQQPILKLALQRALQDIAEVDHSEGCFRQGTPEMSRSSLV

Going from CC1(C)C(C(=O)Nc2ccc(-n3cc(O)cn3)cn2)C1(C)C to O=C(Nc1ccc(Oc2ccc(F)c(F)c2)cn1)C1CC1F (single isomer, unassigned) [E064], the “Human MrgprX2 Antagonist pIC50” value rises from 6.04 to 6.64.

CCN(C[C@@H](O)C(F)(F)F)C(=O)Nc1cnc(Cc2cc(F)cc(F)c2)cn1 and O=C(Nc1ccc(Oc2ccc(F)c(F)c2)cn1)C1CC1F (single isomer, unassigned) [E067] are within 0.2 log units of each other in “Human MrgprX2 Antagonist pIC50” value: 6.17 for the first, 6.1 for the second.

Source: patent US20230027929A1, “MrgprX2 Antagonists and Uses Thereof” (Dermira, Inc., priority 2019, published 2023)
